# Results as given in PMC7497679 (Investigational New Drugs, 2020).
# For some assays here: Some peptides are written in HELM: one residue between dots, names in brackets for other building blocks, links after the first $.
# Key:
# [1] = general procedure: Fmoc solid-phase peptide synthesis; Rink Amide resin; HBTU/DIPEA; HATU/HOBt/DIPEA for 5(6)-Fam labelling; conditions: whole synthesis
# [2] = general procedure: Fmoc solid-phase peptide synthesis; 2-Cl-Trt resin; HBTU/DIPEA; HATU/HOBt/DIPEA for 5(6)-Fam labelling; conditions: whole synthesis
Substance,isolated yield [1],isolated yield [2]
H-Ala-Val-Pro-Dpm-Ala-Lys(5(6)-Fam)-Lys-NH2,Yield 12%,
PEPTIDE1{A.V.P.W}$$$$V2.0,,Yield 39%
